# From PubChem BioAssay AID330 (DTP/NCI, 2004)
# The list shows only some results of the screen, not a fair sample: it is rich in T/C values a quarter to a half above the control, in often repeated tests (any T/C) and in doses without a T/C. Further doses and runs are listed elsewhere. T/C is the treated group as % of the vehicle group. Some entries give survivors of the animals treated and no T/C: the source files T/C as zero there, which appears to mark a toxic dose or a test without result, not a measured value. Some survivor counts are full or nearly so, which does not show that the dose was tolerated: survival well below the control is almost never listed, so the zero probably covers shortened survival too. Counts of survivors are from the toxicity check (mostly the fifth day) where no day follows; animals may have died later. Schedules are NCI's codes, taken here to give the interval after Q, in days (D) or hours (H), and the number of doses after X. Where survival is the endpoint, the PubChem record calls one and a half times the control and up active, and a quarter to a half above the control has no call in these data; cut-offs in other NCI protocols can differ.
# System: P388 leukemia ip, CD2F1 mice, survival T/C
# Test: NCI In Vivo Anticancer Drug Screen. Data for tumor model P388 Leukemia (intraperitoneal) in CD2F1 (CDF1) mice
# Conditions: T/C endpoint: median survival time, higher T/C = longer survival
# [1] = dose: 200.0 mg/kg/injection, schedule: Q01DX005 (ip), vehicle: Klucel (hydroxypropylcellulose) (HPC)
# [2] = dose: 100.0 mg/kg/injection, schedule: Q01DX005 (ip), vehicle: Klucel (hydroxypropylcellulose) (HPC)
# [3] = dose: 200.0 mg/kg/injection, schedule: Q01DX005 (ip), vehicle: saline with Tween-80
# [4] = dose: 200.0 mg/kg/injection, schedule: Q04DX002 (ip), vehicle: saline with Tween-80
# [5] = dose: 400.0 mg/kg/injection, schedule: Q04DX002 (ip), vehicle: saline with Tween-80
# [6] = dose: 100.0 mg/kg/injection, schedule: Q01DX009 (ip), vehicle: saline with Tween-80
smiles,measurement,setting,value
CCN(CC)CCOc1cccc(NC(=O)CN(CC)CC)c1,survivor count,"dose: 120.0 mg/kg/injection, schedule: Q01DX005 (ip), vehicle: Klucel (hydroxypropylcellulose) (HPC)",3 of 6
same,survivor count,"dose: 240.0 mg/kg/injection, schedule: Q01DX005 (ip), vehicle: Klucel (hydroxypropylcellulose) (HPC)",0 of 6
C/C(=N\NC(=O)c1ccccc1)c1cccc(/C(C)=N/NC(=O)c2ccccc2)n1.O=S(=O)([O-])[O-].[Fe+2],T/C,"dose: 100.0 mg/kg/injection, schedule: Q01DX001 (ip), vehicle: saline with Tween-80",126 % of control
same,survivor count,"dose: 200.0 mg/kg/injection, schedule: Q01DX001 (ip), vehicle: saline with Tween-80",0 of 6
same,survivor count,"dose: 400.0 mg/kg/injection, schedule: Q01DX001 (ip), vehicle: saline with Tween-80",0 of 6
CCCCN(CCCC)CC1CC(C(C)(C)C)CCC1O (stereo not drawn),survivor count,[1],1 of 6
COc1cc(NS(C)(=O)=O)ccc1Nc1c2ccc(Cl)cc2nc2c(OC)cccc12,T/C,"dose: 3.13 mg/kg/injection, schedule: Q04DX003 (ip), vehicle: saline with Tween-80",145 % of control
C[CH2][Sn]([CH2]C)([N](c1ccccn1)c1ccccn1)[N](c1ccccn1)c1ccccn1,T/C,"dose: 3.12 mg/kg/injection, schedule: Q01DX005 (ip), vehicle: Klucel (hydroxypropylcellulose) (HPC)",128 % of control
same,survivor count,"dose: 50.0 mg/kg/injection, schedule: Q01DX005 (ip), vehicle: Klucel (hydroxypropylcellulose) (HPC)",3 of 6
same,survivor count,[2],0 of 6
same,survivor count,[1],0 of 6
Cn1c(=O)c2c(Nc3ccccc3)ncnc2n(C)c1=O,survivor count,"dose: 140.0 mg/kg/injection, schedule: Q01DX005 (ip), vehicle: saline with Tween-80",6 of 6
CCN(CC)CCOc1ccc(C2c3cc(OC)ccc3CC2Cc2cccc(Cl)c2)cc1 (stereo not drawn),survivor count,[2],4 of 6
same,survivor count,[1],2 of 6
BrC1c2ccccc2-c2nc3ccccc3nc21 (stereo not drawn),survivor count,[2],4 of 6
same,survivor count,[1],0 of 6
C=CCNC(=S)N/N=C(/c1ccccn1)C(C)C,survivor count,[3],2 of 6
CCCCCCCCC(=O)CC,survivor count,"dose: 400.0 mg/kg/injection, schedule: Q01DX009 (ip), vehicle: saline with Tween-80",2 of 6
Oc1ccc(C(O)CNCCCCCCNCC(O)c2ccc(O)c(O)c2)cc1O (stereo not drawn),survivor count,"dose: 100.0 mg/kg/injection, schedule: Q01DX009 (ip), vehicle: saline",2 of 6
same,survivor count,"dose: 200.0 mg/kg/injection, schedule: Q01DX009 (ip), vehicle: saline",0 of 6
CCOC(=O)C1CCCC1=O.CCOC(=O)C1CCCC1=O.[Cu] (stereo not drawn),survivor count,"dose: 100.0 mg/kg/injection, schedule: Q04DX002 (ip), vehicle: saline with Tween-80",0 of 6
same,survivor count,[4],1 of 6
same,survivor count,[5],0 of 6
CN(C)CCC(=O)c1ccc(C(=O)CCN(C)C)cc1,survivor count,"dose: 200.0 mg/kg/injection, schedule: Q01DX005 (ip), vehicle: saline",2 of 6
c1ccc(-c2nc[nH]c2-c2ccccc2)cc1,survivor count,"dose: 50.0 mg/kg/injection, schedule: Q01DX009 (ip), vehicle: suspension in saline",4 of 6
O=c1c2cnc(-c3ccccc3)nc2oc2ccc3ccccc3c12,survivor count,[6],6 of 6
same,survivor count,"dose: 200.0 mg/kg/injection, schedule: Q01DX009 (ip), vehicle: saline with Tween-80",6 of 6
C=Cn1c([N+](=O)[O-])cnc1/C=C/c1ccc(C(=O)OCCN2CCOCC2)cc1,survivor count,[4],6 of 6
same,survivor count,[5],6 of 6
Cc1cc(-c2ccccc2)c2ccccc2c1N(CC(=O)O)S(=O)(=O)c1ccccc1,T/C,"dose: 50.0 mg/kg/injection, schedule: Q01DX009 (ip), vehicle: saline with Tween-80",130 % of control
same,T/C,[6],140 % of control
O=C1C=CC(=Nc2cccc3c2C(=O)c2ccccc2-3)O1,survivor count,[3],4 of 6
same,survivor count,"dose: 400.0 mg/kg/injection, schedule: Q01DX005 (ip), vehicle: saline with Tween-80",0 of 6
